Test results as given in patent US20250346630A1, “Engineering Peptides Using Peptide Epitope Linker Evolution” (AGENCY FOR SCIENCE, TECHNOLOGY AND RESEARCH, priority 2022, published 2025).
At least one peptide structure holds a part that was inferred or is arguable (an end, a ring closure or a residue). Residues, ends and D or L forms follow the SMILES beside them.

The chains behind the UniProt entries cited, without tags or fusion partners. Residues count along the entry.
UniProt P12004, whole entry: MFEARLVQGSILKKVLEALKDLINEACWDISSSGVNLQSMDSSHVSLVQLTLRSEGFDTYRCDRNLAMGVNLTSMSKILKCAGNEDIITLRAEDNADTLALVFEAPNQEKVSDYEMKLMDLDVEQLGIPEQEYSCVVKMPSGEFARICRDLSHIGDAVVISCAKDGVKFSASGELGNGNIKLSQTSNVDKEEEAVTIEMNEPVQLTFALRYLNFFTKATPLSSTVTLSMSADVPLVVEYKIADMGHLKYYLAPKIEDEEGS
UniProt P06730, whole entry: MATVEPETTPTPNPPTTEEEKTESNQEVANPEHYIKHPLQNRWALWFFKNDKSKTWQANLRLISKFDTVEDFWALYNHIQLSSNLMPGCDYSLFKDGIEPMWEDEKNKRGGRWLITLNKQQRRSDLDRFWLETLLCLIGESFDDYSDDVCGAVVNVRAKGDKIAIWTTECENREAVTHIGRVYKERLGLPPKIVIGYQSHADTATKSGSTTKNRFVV
UniProt P06730, 2-217 limits assumed: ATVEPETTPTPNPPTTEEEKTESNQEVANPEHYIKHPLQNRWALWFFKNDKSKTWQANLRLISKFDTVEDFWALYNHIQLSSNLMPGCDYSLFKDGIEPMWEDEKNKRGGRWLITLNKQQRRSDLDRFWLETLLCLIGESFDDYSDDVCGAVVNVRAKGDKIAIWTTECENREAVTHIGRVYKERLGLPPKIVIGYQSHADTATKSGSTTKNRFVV

Columns and labels:
PCNA = biological target: T1, PCNA (Homo sapiens, UniProt P12004); assay: Anti-FLAG immunoprecipitation pull down with PCNA; format: cell-based; settings: for anti-FLAG pull down in complex with PCNA: HEK293 cells; for anti-FLAG IP pull down with PCNA: stably transfected A375 cells, doxycycline induced
T1 construct: endogenous in cells; host or cells: HEK293
Description: Twenty-four hours prior to transfection or drugging, cells were seeded at a cell density of 1000.000 (HEK293) cells per well of a six-well plate (ThermoFisher Scientific). Transfections were performed using Lipofectamine 3000 (ThermoFisher Scientific) with either 2 μg or the indicated amount of plasmid vectors per well according to the manufacturer's instructions. After a 48-hour incubation period, the cell media was then removed and the cells washed with PBS saline. Cells were directly lysed in the wells with 300 μl of lysis buffer containing 20 mM Hepes pH 7.4, 100 mM NaCl, 5 mM MgCl2, 0.5% NP-40, 1 mM DTT, with protease (Roche) and phosphatase (Sigma-Aldrich) inhibitor cocktail sets added as outlined by the manufacturer's protocols. […] Beads were then washed four times with lysis buffer containing no protease or phosphatase inhibitors. This was then followed by the addition of Laemlee buffer (2×) and the beads boiled for 5 min at 95° C. Samples were centrifuged and the supernatant removed for western blot analysis.
Confluent HEK293FT cells were used to generate lentivirus for infection of target cells. Packaging cells were transfected using calcium phosphate transfection as described below. 6 μg of pCW57 plasmid (Addgene, USA) harbouring either 4EBP1^4ALA or VH-S4 or no insert were co-transfected into HEK293T cells with plasmids encoding pLVSVG (viral envelope), pLP1 (gag-pol) and pLP2 (rev), in a ratio of 2:1:2:2 to generate viral particles. The conditioned medium harbouring viral particles from the transfected HEK293T cells was filtered 48 hours following co-transfection and viral particles were concentrated by ultracentrifugation. A375 cells were seeded in 12-well plates and infected with viral particles over a 12 hour period prior to cell media replacement with fresh medium 72 hours post infection. A375 cells were supplemented with 800 μg/ml of geneticin and selections for stably transfected cells were carried out for 2 weeks, replacing the antibiotic-containing media every 3 days. Polyclonal geneticin-resistant pools of cells were then obtained. These were then incubated with 1 μg/ml of doxycycline for 24 hours, where upon GFP positive single clones were isolated by FACs into 96-well plates. Monoclonal stable cell lines were verified using western blot and then expanded for subsequent analysis.
Samples were resolved on midi or mini Tris-Glycine 4-20% gradient gels (Bio-Rad) according to the manufacturer's protocol. Western transfer was performed with an Immuno-blot PVDF or nitrocellulose membrane (Bio-Rad) using a Trans-Blot Turbo system (Bio-Rad). Western blots were then performed. Antibodies against peIF4E^S209,4EBP1, cyclin D1 and FLAG were purchased from Abcam or Sigma, respectively. […] B-actin levels were measured to ensure equal loading.

A375 cells = assay: Cell proliferation assay (IncuCyte confluence); format: cell-based, human; settings: stable inducible A375 cell lines, doxycycline 1 μg/ml, 7 days
eIF4E = eIF4E (Homo sapiens, UniProt P06730); assay: Immunoprecipitation pull down of eIF4E from HEK293 cells or lysate; format: cell-based; design: endogenous in cells; host or cells: HEK293; settings: for anti-FLAG immunoprecipitation of cellular eIF4E: FLAG-tagged construct transfected into HEK293
[1] = system: eIF4E phosphorylation at S209; assay: Western blot of eIF4E phosphorylation in transfected HEK293; format: cell-based, human; settings: HEK293, western blot 48 hours post transfection
eIF4F complex = biological target: T2, eIF4F complex (Homo sapiens, UniProt P06730); assay: m^7GTP pulldown of eIF4E containing complexes from transfected HEK293; format: cell-based; settings: construct over-expressed in HEK293
T2 construct: endogenous in cells; host or cells: HEK293

[2] = system: cap-dependent translation; assay: Cap-dependent translation assay (bicistronic luciferase reporter); format: cell-based, human; settings: HEK293, 48 h post transfection
Cyclin D1 = assay: Western blot of cyclin D1 expression in transfected HEK293; format: cell-based, human; settings: HEK293, western blot 48 hours post transfection

Compound	anti-FLAG pull down in complex with PCNA (PCNA)	anti-FLAG IP pull down with PCNA (PCNA)	proliferation (confluency) of A375 cells on induction (A375 cells)	anti-FLAG immunoprecipitation of cellular eIF4E (eIF4E)	anti-His pull down of eIF4E by purified protein from cell lysate (eIF4E; purified protein added to HEK293 lysates treated with CGP57380 or vehicle)	levels of eIF4E phosphorylation at S209 [1]	eIF4F complex formation on m^7GTP beads (eIF4F complex)	cap-dependent (Renilla) versus cap-independent (Firefly) translation, bicistronic luciferase reporter [2]	Cyclin D1 protein levels (Cyclin D1)
CSCC[C@H](NC(=O)[C@@H]1CCCN1C(=O)[C@H](Cc1ccc(O)cc1)NC(=O)[C@@H](NC(=O)[C@@H]1CCCN1C(=O)[C@H](Cc1c[nH]cn1)NC(=O)[C@H](CCCNC(=N)N)NC(=O)[C@@H](NC(=O)[C@H](Cc1c[nH]cn1)NC(=O)[C@@H](N)CO)[C@@H](C)O)C(C)C)C(=O)N[C@@H](Cc1ccccc1)C(=O)N[C@@H](Cc1c[nH]cn1)C(=O)N1CCC[C@H]1C(=O)N[C@@H](CCCNC(=N)N)C(=O)O [VH-31] (H-SHTRHPVYPMFHPR-OH)	can be pulled down by anti-FLAG conjugated beads in complex with PCNA	can be pulled down with PCNA	reduces the proliferation						
CSCC[C@H](NC(=O)[C@@H]1CCCN1C(=O)[C@H](Cc1ccc(O)cc1)NC(=O)[C@@H](NC(=O)[C@@H]1CCCN1C(=O)[C@H](CCCNC(=N)N)NC(=O)[C@H](CCC(=O)O)NC(=O)[C@H](CO)NC(=O)[C@H](CCC(N)=O)NC(=O)[C@@H](N)CO)C(C)C)C(=O)N[C@@H](Cc1ccccc1)C(=O)N[C@@H](Cc1c[nH]cn1)C(=O)N[C@@H](CC(C)C)C(=O)N[C@@H](CCCNC(=N)N)C(=O)O [VH-D1] (H-SQSERPVYPMFHLR-OH)	can be pulled down by anti-FLAG conjugated beads in complex with PCNA	can be pulled down with PCNA	reduces the proliferation						
CC[C@H](C)[C@H](NC(=O)[C@H](CC(N)=O)NC(=O)[C@@H](NC(=O)[C@H](Cc1ccccc1)NC(=O)[C@H](Cc1ccccc1)NC(=O)CNC(=O)[C@H](CCSC)NC(=O)[C@H](CCC(=O)O)NC(=O)[C@@H]1CCCN1C(=O)[C@H](CC(C)C)NC(=O)[C@@H]1CCCN1)[C@@H](C)O)C(=O)N1CCC[C@H]1C(=O)N[C@@H](C)C(=O)N[C@@H](CCSC)C(=O)N[C@H](C(=O)O)C(C)C [VH-DiF^CAP-01] (H-PLPEMGFFTNIPAMV-OH)				immuno-precipitated cellular eIF4E more efficiently than VH-DIF^CAP-02	able to efficiently interact with both phosphorylated and unphosphorylated forms of eIF4E	reduction in the levels of eIF4E phosphorylation at S209	reduction of eIF4F complex formation on m^7GTP beads	specifically inhibited cap-dependent translation versus cap-independent translation	down-regulated Cyclin D1 protein levels
CC[C@H](C)[C@H](NC(=O)[C@H](CC(N)=O)NC(=O)[C@@H](NC(=O)[C@H](Cc1ccccc1)NC(=O)[C@H](Cc1ccccc1)NC(=O)CNC(=O)[C@H](C)NC(=O)[C@H](CCC(=O)O)NC(=O)[C@@H]1CCCN1C(=O)[C@H](CC(C)C)NC(=O)[C@@H]1CCCN1)[C@@H](C)O)C(=O)N1CCC[C@H]1C(=O)N[C@@H](C)C(=O)N[C@@H](CCSC)C(=O)N[C@H](C(=O)O)C(C)C [VH-DiF^CAP_01^Cntrl] (H-PLPEAGFFTNIPAMV-OH)				abrogated the ability of VH-DIF^CAP-01 to immuno-precipitate eIF4E				negligible activity	negligible activity
